Source: PubChem BioAssay AID2685 (National Center for Advancing Translational Sciences (NCATS), 2010)
The whole screen tested about 320,000 compounds, of which about 2,100 (0.66%) were called active. The inconclusive results got no clear call from the source; some entries with a clear call stand among them for comparison. The call rests on the fitted dose curve; in most records, active means well fitted inhibition curve with a large enough effect in the signal ratio, with a control signal flat (not every such curve was filed as active); inconclusive means small, poorly fitted or top-dose-only effect, or effect the other way, or a change in a side signal; inactive means flat fitted curve, though single readings scatter; the % refers to the signal ratio. Where the call is inconclusive, the potency comes from a doubtful curve fit.

Assay: qHTS Assay for Lipid Storage Modulators in Drosophila S3 Cells
Settings: BODIPY lipid droplet fluorescence, 18-24 h, cells fed with added oleic acid; lipid storage change, negative = inhibition: at 46.1 µM (top of the series) unless noted
Method in brief: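 Laser-scanning cytometry quantifies lipid droplet accumulation (500–530 nm total intensity; droplet/cell object ratio) in oleic acid-fed (400 uM added) Drosophila S3 cells treated with a concentration series. 20 uM Triacsin C defined 100% inhibition.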
On the % scale 0 is the no-effect control and ±100 the full control effect; potency means the concentration at half of the fitted maximal effect.

SMILES	lipid storage change, negative = inhibition	Potency
CCc1ccc(/C([O-])=C(/C(=S)NCCN2CCOCC2)[n+]2ccccc2)cc1	inconclusive: 2.98%	–
Cc1ccnc(NC(=O)CNC(=O)c2cccs2)c1	inconclusive: -36.9%	–
O=S(=O)(c1ccc(F)cc1)n1ccc(-c2cnc(-c3ccccc3)s2)n1	inconclusive: -30.6%	–
N#Cc1c(C(F)(F)F)cc(-c2ccc(Cl)c(Cl)c2)nc1SCCN1CCOCC1	–	inconclusive: 0.82 µM [activator, partial curve]
Cc1ccc(S(=O)(=O)N2CCN=C2SCc2ccccc2)cc1	–	inconclusive: 29.1 µM [falling, single point]
O=c1[nH]c(CN2CCC(c3nc4ccccc4s3)CC2)nc2sc3c(c12)CCC3	inconclusive: -14.8%	–
COc1ccc(C2CC(C(F)(F)F)n3nc(C(=O)NCCN4CCOCC4)cc3N2)cc1 (stereo unspecified)	inconclusive: -7.14%	–
Cc1nn(CCC(=O)NCc2ccc(N(C)C)cc2)c(=O)c2nn(-c3ccccc3)c(C)c12	–	inconclusive: 11.6 µM [activator, partial curve, poor fit]
Cc1ccc(S(=O)(=O)NNC(=S)Nc2cccc(C)c2C)cc1	inconclusive: 37.7%	–
O=S(=O)(/N=C(/Nc1nc2ccccc2s1)c1ccccc1)c1ccc(F)cc1	inconclusive	–
C[C@H](NC(=O)Cc1cccc2ccccc12)C(=O)N1CCCN(C)CC1	inconclusive: -48.9%	–
COc1ccc(N=Nc2nc3cc(Br)c(Br)cc3n2C)c(OC)c1	inconclusive: -33.4%	–
O=P(O)(O)c1ccccc1OCCCCCOc1ccccc1P(=O)(O)O	inconclusive: 6.44%	–
O=C(Cn1ncc(Cl)c(Cl)c1=O)NCC1CCCCC1	–	inconclusive: 20.6 µM [falling, single point]
CC(C)[C@H](NC(=O)CCn1nnc2ccccc2c1=O)C(=O)O	inconclusive: -13.4%	–
O=S(=O)(c1ccc(Cl)cc1)N1CCCC1c1nc2ccccc2s1 (stereo unspecified)	inconclusive: 20.8%	–
Cc1occc1C(=O)Nc1ccccc1C(=O)O	inconclusive: 6.94%	–
Cc1cc(C)cc(NC(=O)C2CCN(c3nccs3)CC2)c1	inconclusive: 13.4%	–
CC(C)C[C@H](NC(=O)c1nc[nH]c1C(=O)NCC(=O)OCc1ccccc1)C(=O)OC(C)(C)C	inconclusive: -8.46%	–
O=C(Nc1ccccc1C(=O)O)c1cncc(Br)c1	inconclusive: 46%	–
N#C/C(=C/c1ccc(F)cc1)c1nnc(NC(=O)c2ccccc2)s1	inconclusive: 18.8%	–
O=C(CN1CCN(Cc2ccc(F)cc2Cl)C1=O)NCCCN1CCOCC1	inconclusive: -1.41%	–
CC(Sc1ccc(Cl)cc1)C(=O)NCc1ccc2c(c1)OCO2 (stereo unspecified)	–	inconclusive: 18.4 µM [activator, partial curve]
Cc1cc(C(=O)Nn2cnnc2)ccc1[N+](=O)[O-]	–	inconclusive: 0.82 µM [falling, full curve, poor fit]
Fc1ccc(COc2ccccc2CNCc2ccncc2)cc1	inconclusive: 19.3%	–
CCCCNC(=O)/C(C#N)=C/c1ccc(C(=O)OC)cc1	inactive: -11.1%	–

SMILES	lipid storage change, negative = inhibition	Potency
O=C(O)Cn1nc(C(F)(F)F)c2c1CCC2	inconclusive: -26.9%	–
N#Cc1ccc(NC(=O)CCc2nc3ccccc3s2)cc1	inconclusive: 22.8%	–
COC(C(=O)Nc1ccnn1C1CCN(Cc2nccs2)CC1)c1ccccc1 (stereo unspecified)	–	active: 18.4 µM
CCC(C)N(C(=O)c1csnn1)C(C(=O)NC1CCCC1)c1ccccc1F (stereo unspecified)	inconclusive: 62.4%	–
Cc1cccc(C(=O)Nc2ccccc2N2CCN(c3ccc(F)cc3)CC2)c1	inconclusive: 12.9%	–
c1ccc(Oc2cccc(OCCn3cncn3)c2)cc1	–	inconclusive: 6.51 µM [activator, partial curve]
Cc1nn(C)cc1CN(C)C(=O)c1cc(COc2ccc(F)cc2F)on1	inconclusive: 25.6%	–
CC(NC(=O)c1ccc(N2CCCC2)c([N+](=O)[O-])c1)c1ccc(S(N)(=O)=O)cc1 (stereo unspecified)	–	inconclusive: 23.1 µM [activator, partial curve, poor fit]
O=C(C1CC1)N1N=C(c2ccccc2)CC1(O)C(F)(F)C(F)(F)F (stereo unspecified)	inconclusive: 81.7%	–
Cc1cc(C)cc(NS(=O)(=O)c2ccc(NC(=O)C3CCCCC3C(=O)O)cc2)c1 (stereo unspecified)	–	inconclusive: 0.116 µM [falling, full curve]
CC1=NN(c2ccccc2)C(=O)C1c1ccccc1 (stereo unspecified)	–	inconclusive: 29.1 µM [activator, single point]
N#CC1(NC(=O)Cn2ncc(Cl)c(Cl)c2=O)CCCCC1	inconclusive: -28.8%	–
CCCCC(=O)Nc1ccc(NC(=O)c2ccco2)cn1	inconclusive: 4.12%	–
O=C(NCCCN1CCOCC1)c1ccccc1	–	active: 20.6 µM
CN(Cc1cc2ccccc2[nH]c1=O)S(=O)(=O)c1ccccc1	–	inconclusive: 8.2 µM [activator, partial curve]
O=C(OCc1nnc(-c2ccccc2)o1)c1cccnc1Cl	inconclusive: 11.6%	–
c1cc2nnnn2nc1N1CCCCC1	inconclusive: 32.8%	–
CCOc1ccc(S(=O)(=O)n2cnc3cc(C)c(C)cc32)cc1	inconclusive: -28.9%	–
O=C(O)c1cc(S(=O)(=O)N(Cc2ccccc2)c2cccc(C(F)(F)F)c2)ccc1Cl	inconclusive: 37.4%	–
CN(CC(=O)NCc1ccc2c(c1)OCO2)S(=O)(=O)c1ccc(F)cc1	inconclusive: 23%	–
Cn1c(CC(=O)Nc2ccccc2C(F)(F)F)c(Sc2ccccc2)c2ccccc21	inconclusive: 33.2%	–
N#Cc1ccccc1Oc1ccccc1C=O	inconclusive: -16.9%	–
COc1ccc(S(=O)(=O)N2CCN(C(=O)COc3ccc4c(C)cc(=O)oc4c3)CC2)cc1	–	inconclusive: 0.58 µM [activator, full curve, poor fit]
Nc1nonc1-n1nnc(C(=O)N/N=C/c2ccncc2)c1-c1cccs1	inconclusive: 330%	–
COc1cc(C2C(C#N)=C(N)Oc3c2oc(CO)cc3=O)ccc1OC(C)C (stereo unspecified)	inconclusive: 16.8%	–

15 successive compounds from above:
SMILES	lipid storage change, negative = inhibition	Potency
Cc1occc1C(=O)Nc1ccccc1C(=O)O	inconclusive: 6.94%	–
Cc1cc(C)cc(NC(=O)C2CCN(c3nccs3)CC2)c1	inconclusive: 13.4%	–
CC(C)C[C@H](NC(=O)c1nc[nH]c1C(=O)NCC(=O)OCc1ccccc1)C(=O)OC(C)(C)C	inconclusive: -8.46%	–
O=C(Nc1ccccc1C(=O)O)c1cncc(Br)c1	inconclusive: 46%	–
N#C/C(=C/c1ccc(F)cc1)c1nnc(NC(=O)c2ccccc2)s1	inconclusive: 18.8%	–
O=C(CN1CCN(Cc2ccc(F)cc2Cl)C1=O)NCCCN1CCOCC1	inconclusive: -1.41%	–
CC(Sc1ccc(Cl)cc1)C(=O)NCc1ccc2c(c1)OCO2 (stereo unspecified)	–	inconclusive: 18.4 µM [activator, partial curve]
Cc1cc(C(=O)Nn2cnnc2)ccc1[N+](=O)[O-]	–	inconclusive: 0.82 µM [falling, full curve, poor fit]
Fc1ccc(COc2ccccc2CNCc2ccncc2)cc1	inconclusive: 19.3%	–
CCCCNC(=O)/C(C#N)=C/c1ccc(C(=O)OC)cc1	inactive: -11.1%	–
O=C(O)Cn1nc(C(F)(F)F)c2c1CCC2	inconclusive: -26.9%	–
N#Cc1ccc(NC(=O)CCc2nc3ccccc3s2)cc1	inconclusive: 22.8%	–
COC(C(=O)Nc1ccnn1C1CCN(Cc2nccs2)CC1)c1ccccc1 (stereo unspecified)	–	active: 18.4 µM
CCC(C)N(C(=O)c1csnn1)C(C(=O)NC1CCCC1)c1ccccc1F (stereo unspecified)	inconclusive: 62.4%	–
Cc1cccc(C(=O)Nc2ccccc2N2CCN(c3ccc(F)cc3)CC2)c1	inconclusive: 12.9%	–
